# PubChem BioAssay AID1259405 | NCATS, 2018
# Test: 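Silenced genes that increase secreted GFP made by CHO cells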 (primary screen)
# Cells: Chinese hamster CHO-K1 ovary cells with stable secreted eGFP expression
# Knock-down reagent: single siRNA against mouse genes, 0.8 pmol siRNA per well (2 µl of 400 nM stock)
# Duration: 3 days
# Detection: 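Per-well intracellular GFP measured by laser scanning cytometry, plus viability from ATP luminescence, each relative to plate median of non-targeting control wells, in %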
# Reading the numbers: GFP, % of control: higher = more GFP per well, higher productivity; viability (ATP), % of control: higher = more viable cells (more ATP)
# Call rule: 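a knock-down is called active if GFP reaches 120% or more of non-targeting control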
# The deposit covers about 50,000 reagents; shown is an unselected part. About 4,000 of all reagents (8%) count as active. 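Mouse siRNA library applied to hamster cells; one well for each siRNA.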 Reagents against one gene are numbered here.
target,siRNA no.,"GFP, % of control","viability (ATP), % of control",call
Dnajb6,1,79,76.1,inactive
Dnajb6,2,105,100,inactive
Dnajb6,3,58,49.3,inactive
Nid2,1,79.9,112,inactive
Nid2,2,116,79.4,inactive
Orm3,1,99,63.7,inactive
Orm3,2,50.1,60.9,inactive
Orm3,3,101,141,inactive
Rpl10a,1,79.8,78.5,inactive
Rpl10a,2,73.3,50.4,inactive
Rpl10a,3,115,86.1,inactive
Gpr50,1,93.7,91.5,inactive
Gpr50,2,69.5,63.8,inactive
Gpr50,3,93.3,60.6,inactive
Wdr12,1,60.6,49.8,inactive
Wdr12,2,39.8,42.4,inactive
Wdr12,3,65.6,75.2,inactive
Or52a5b,1,87.5,65.4,inactive
Or52a5b,2,96.2,51.9,inactive
Or52a5b,3,128,99.9,active
Pla2g3,1,43.9,59,inactive
Pla2g3,2,90.1,78.6,inactive
Pla2g3,3,56.8,63,inactive
A730085E03Rik,1,67.7,49.2,inactive
A730085E03Rik,2,53,58.1,inactive
A730085E03Rik,3,35.8,43.4,inactive
Polr2h,1,67.6,71,inactive
Polr2h,2,90,58.2,inactive
Polr2h,3,61.1,81,inactive
Or8d1,1,32.1,35.4,inactive
Or8d1,2,61.8,83.3,inactive
Or8d1,3,59.1,56,inactive
Gcnt2,1,42.6,44,inactive
Gcnt2,2,74.5,81.8,inactive
Gcnt2,3,74.2,70.4,inactive
Rfx4,1,53.4,64.1,inactive
Rfx4,2,64.7,78.1,inactive
Rfx4,3,96.6,76.2,inactive
Or8b1,1,51.6,56.9,inactive
Or8b1,2,72.9,84.7,inactive
Or8b1,3,73.7,35.3,inactive
Gldc,1,82.3,65.4,inactive
Gldc,2,61.6,64.2,inactive
Gldc,3,101,64.8,inactive
Rrad,1,114,79.4,inactive
Rrad,2,155,132,active
Rrad,3,50.9,50.6,inactive
Chuk,1,55.7,52.7,inactive
Dhrs1,1,100,92.4,inactive
Dhrs1,2,64.8,56.5,inactive
Dhrs1,3,71.6,84.4,inactive
Slc5a1,1,93.4,80.8,inactive
Slc5a1,2,135,133,active
Slc5a1,3,65.5,62.5,inactive
Prxl2c,1,96.6,117,inactive
Prxl2c,2,84,88.2,inactive
Prxl2c,3,22.3,25,inactive
Mrpl39,1,95.4,109,inactive
Mrpl39,2,74.5,71.7,inactive
Mrpl39,3,105,94.8,inactive
6430571L13Rik,1,96.3,49.7,inactive
6430571L13Rik,2,70.2,82.9,inactive
6430571L13Rik,3,109,121,inactive
Krt82,1,50.5,51,inactive
Krt82,2,75.5,72,inactive
Krt82,3,120,56,active
Arvcf,1,62.2,93.4,inactive
Arvcf,2,71.4,75.8,inactive
Arvcf,3,76.8,45.6,inactive
Rgs3,1,87.5,78.4,inactive
Rgs3,2,102,91.1,inactive
Rgs3,3,79.7,66.9,inactive
Trub1,1,86.8,104,inactive
Trub1,2,59.3,55.7,inactive
Trub1,3,111,81.4,inactive
Morn2,1,99.5,94.3,inactive
Morn2,2,64.3,71.9,inactive
Morn2,3,81,63.7,inactive
Clcc1,1,70.4,62.1,inactive
Clcc1,2,97.8,82.4,inactive
Clcc1,3,48.4,51.9,inactive
Plch2,1,109,79,inactive
Plch2,2,88.7,92.7,inactive
Plch2,3,88.7,69.2,inactive
Ddx21,1,98.4,55.8,inactive
Ddx21,2,93.3,83.4,inactive
Ddx21,3,108,91.9,inactive
Cdh20,1,88,76,inactive
Cdh20,2,73.2,49.8,inactive
Cdh20,3,82.1,70.1,inactive
Atg9b,1,76.7,81.8,inactive
Atg9b,2,90.4,77.4,inactive
Atg9b,3,118,80.7,inactive
Lonp2,1,6.24,17.8,inactive
Lonp2,2,51,76.1,inactive
Lonp2,3,90.4,56.1,inactive
Cds1,1,139,89.5,active
Cds1,2,94.4,111,inactive
Cds1,3,106,95.1,inactive
Prkx,1,48.6,59.6,inactive
Fbxl2,1,65.5,50.2,inactive
Fbxl2,2,87.7,87.4,inactive
Fbxl2,3,59.9,47.6,inactive
Tff3,1,73.3,68.3,inactive
Tff3,2,23.7,23.7,inactive
Tff3,3,49.9,35,inactive
Rfk,1,48.4,58.7,inactive
Rfk,2,60.1,68.7,inactive
Rfk,3,77,74.8,inactive
